This is an account of results in publication PMC5811216, “Cleavage activates Dispatched for Sonic Hedgehog ligand release” (eLife, 2018).

Amino acid sequences for entries named in this document (tags omitted). A change or cut given only in a name is not applied to a line headed by its entry.
UniProt Q3TDN0: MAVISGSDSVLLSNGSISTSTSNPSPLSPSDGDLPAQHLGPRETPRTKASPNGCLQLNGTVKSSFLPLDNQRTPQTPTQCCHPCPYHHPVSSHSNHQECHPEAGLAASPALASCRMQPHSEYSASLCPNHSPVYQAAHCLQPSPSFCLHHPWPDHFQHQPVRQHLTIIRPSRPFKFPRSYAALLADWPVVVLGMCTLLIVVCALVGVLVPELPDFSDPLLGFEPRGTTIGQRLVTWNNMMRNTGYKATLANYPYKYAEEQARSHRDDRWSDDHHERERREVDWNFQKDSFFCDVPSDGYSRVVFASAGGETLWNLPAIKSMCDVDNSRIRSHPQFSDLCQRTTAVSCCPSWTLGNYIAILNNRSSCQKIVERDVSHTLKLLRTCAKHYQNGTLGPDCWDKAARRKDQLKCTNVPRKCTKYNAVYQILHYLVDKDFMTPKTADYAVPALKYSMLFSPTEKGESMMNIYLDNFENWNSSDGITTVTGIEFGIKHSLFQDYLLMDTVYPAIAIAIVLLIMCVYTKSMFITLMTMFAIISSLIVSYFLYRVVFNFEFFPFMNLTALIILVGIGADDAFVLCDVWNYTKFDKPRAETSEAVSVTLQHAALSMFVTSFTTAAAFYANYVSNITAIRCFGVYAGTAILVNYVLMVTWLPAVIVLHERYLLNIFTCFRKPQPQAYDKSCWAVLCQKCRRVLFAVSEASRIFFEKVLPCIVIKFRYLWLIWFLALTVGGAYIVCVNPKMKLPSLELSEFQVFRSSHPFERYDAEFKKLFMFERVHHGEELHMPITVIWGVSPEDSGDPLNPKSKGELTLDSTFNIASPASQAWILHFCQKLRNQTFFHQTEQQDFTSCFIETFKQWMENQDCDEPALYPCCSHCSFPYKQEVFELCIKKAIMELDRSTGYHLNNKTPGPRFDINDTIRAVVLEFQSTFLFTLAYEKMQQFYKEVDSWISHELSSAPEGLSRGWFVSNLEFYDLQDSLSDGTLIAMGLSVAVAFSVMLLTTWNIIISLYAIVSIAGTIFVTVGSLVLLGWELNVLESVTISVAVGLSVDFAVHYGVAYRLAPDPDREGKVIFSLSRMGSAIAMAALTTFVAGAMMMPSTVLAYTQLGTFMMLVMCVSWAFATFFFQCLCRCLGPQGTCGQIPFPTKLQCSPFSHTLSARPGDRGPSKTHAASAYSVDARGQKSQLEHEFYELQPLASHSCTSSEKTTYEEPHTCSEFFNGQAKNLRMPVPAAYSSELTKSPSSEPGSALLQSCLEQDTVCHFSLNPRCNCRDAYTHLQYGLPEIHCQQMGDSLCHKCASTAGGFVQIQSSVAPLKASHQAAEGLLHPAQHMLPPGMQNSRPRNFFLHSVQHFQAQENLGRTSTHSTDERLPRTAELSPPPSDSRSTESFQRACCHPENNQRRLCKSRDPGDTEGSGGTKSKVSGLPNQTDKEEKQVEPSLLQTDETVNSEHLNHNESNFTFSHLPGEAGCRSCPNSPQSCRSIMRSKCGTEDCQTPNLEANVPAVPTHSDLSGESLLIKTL
UniProt Q62226: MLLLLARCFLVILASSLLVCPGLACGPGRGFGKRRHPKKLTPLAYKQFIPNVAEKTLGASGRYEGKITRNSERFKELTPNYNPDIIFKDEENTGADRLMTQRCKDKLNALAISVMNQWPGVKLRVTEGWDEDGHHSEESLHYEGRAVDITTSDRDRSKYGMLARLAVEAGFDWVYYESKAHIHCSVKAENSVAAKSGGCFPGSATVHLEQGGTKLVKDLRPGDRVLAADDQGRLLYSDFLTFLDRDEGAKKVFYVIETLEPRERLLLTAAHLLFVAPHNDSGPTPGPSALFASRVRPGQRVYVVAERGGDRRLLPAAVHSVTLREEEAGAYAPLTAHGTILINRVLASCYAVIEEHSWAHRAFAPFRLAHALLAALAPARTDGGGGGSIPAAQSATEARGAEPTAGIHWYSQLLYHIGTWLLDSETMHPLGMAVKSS

The target in experiment [1] is V5DispHA CS, cleavage site mutant (R279A, E280A) of murine Dispatched 1, expressed in Disp-/- cells (mouse) (UniProt Q3TDN0). The experiment in a line: co-IP; Disp proteins co-expressed with Shh in Disp-/- cells; DispHA immunoprecipitated from lysates on anti-HA affinity gel; anti-Shh western blot.
The target of experiment [2] is V5DispHA, wild-type murine Dispatched 1 with V5 and HA tags, expressed in Disp-/- cells (mouse) (UniProt Q3TDN0). The description is as above.

Results are given in words; binding and its absence hold for the method and conditions named. In cells and extracts the contact can be indirect. A result given as binding can be weak or reduced; the word gives no strength.

As for “Sonic Hedgehog (Shh) (from UniProt Q62226) (ligand)”, the binding entry in experiment [1] and in experiment [2] was “binds” each time.
